Some of the results follow.
Compound: Cc1cc(ccc1-c1ccccc1)C(=O)N1CCCN(CC1)C(=O)CCl [compound 10]
Test: probe-labelled cysteine peptide fold change vs DMSO (competition) (log2 fold change); higher = less target engagement (more negative = stronger competition)
Settings: THP-1, incubation time: 4 h
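Further: competitive profiling in live THP-1 cells: cysteine peptides tagged with an iodoacetamide desthiobiotin (IA-DTB) probe, intensity after compound treatment relative to DMSO-treated cells.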

The chains behind the UniProt entries cited, without tags or fusion partners. Where a name states a change or a piece, a line headed by the entry shows the natural chain unless it says otherwise.
UniProt Q9BY11: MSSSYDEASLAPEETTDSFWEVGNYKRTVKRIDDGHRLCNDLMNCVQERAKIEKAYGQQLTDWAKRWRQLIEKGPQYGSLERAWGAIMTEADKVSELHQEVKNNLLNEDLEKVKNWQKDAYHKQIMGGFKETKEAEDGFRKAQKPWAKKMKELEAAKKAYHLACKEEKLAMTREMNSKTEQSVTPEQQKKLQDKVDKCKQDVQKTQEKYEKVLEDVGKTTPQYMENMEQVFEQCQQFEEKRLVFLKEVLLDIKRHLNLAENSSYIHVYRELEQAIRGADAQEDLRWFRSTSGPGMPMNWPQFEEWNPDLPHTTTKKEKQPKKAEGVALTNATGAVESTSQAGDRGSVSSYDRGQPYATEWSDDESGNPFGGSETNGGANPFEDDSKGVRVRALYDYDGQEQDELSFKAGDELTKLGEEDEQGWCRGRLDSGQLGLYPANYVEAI
UniProt Q9BZF1: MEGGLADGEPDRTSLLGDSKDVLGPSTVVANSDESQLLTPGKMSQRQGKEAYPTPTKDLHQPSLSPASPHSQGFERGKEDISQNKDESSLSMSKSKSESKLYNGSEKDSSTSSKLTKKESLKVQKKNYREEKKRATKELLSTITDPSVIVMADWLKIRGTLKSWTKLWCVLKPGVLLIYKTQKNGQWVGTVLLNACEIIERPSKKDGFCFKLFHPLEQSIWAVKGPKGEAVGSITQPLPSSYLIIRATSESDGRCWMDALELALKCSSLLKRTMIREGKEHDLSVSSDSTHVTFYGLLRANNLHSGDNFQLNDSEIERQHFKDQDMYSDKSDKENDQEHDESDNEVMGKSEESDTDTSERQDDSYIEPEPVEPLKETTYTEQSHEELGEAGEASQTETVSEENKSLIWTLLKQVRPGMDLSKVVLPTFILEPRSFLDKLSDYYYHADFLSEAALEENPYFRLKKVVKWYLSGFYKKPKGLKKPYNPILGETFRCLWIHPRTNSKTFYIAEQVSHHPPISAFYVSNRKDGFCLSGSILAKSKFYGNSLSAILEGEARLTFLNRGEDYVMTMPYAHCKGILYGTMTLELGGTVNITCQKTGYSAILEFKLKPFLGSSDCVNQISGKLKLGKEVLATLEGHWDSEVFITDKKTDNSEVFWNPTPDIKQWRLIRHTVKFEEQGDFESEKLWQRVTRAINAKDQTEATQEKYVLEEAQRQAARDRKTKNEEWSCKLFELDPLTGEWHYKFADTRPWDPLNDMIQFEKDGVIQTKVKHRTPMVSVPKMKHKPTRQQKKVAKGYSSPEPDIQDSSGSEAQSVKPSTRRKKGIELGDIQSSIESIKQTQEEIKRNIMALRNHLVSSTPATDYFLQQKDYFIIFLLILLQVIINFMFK
UniProt Q86W56: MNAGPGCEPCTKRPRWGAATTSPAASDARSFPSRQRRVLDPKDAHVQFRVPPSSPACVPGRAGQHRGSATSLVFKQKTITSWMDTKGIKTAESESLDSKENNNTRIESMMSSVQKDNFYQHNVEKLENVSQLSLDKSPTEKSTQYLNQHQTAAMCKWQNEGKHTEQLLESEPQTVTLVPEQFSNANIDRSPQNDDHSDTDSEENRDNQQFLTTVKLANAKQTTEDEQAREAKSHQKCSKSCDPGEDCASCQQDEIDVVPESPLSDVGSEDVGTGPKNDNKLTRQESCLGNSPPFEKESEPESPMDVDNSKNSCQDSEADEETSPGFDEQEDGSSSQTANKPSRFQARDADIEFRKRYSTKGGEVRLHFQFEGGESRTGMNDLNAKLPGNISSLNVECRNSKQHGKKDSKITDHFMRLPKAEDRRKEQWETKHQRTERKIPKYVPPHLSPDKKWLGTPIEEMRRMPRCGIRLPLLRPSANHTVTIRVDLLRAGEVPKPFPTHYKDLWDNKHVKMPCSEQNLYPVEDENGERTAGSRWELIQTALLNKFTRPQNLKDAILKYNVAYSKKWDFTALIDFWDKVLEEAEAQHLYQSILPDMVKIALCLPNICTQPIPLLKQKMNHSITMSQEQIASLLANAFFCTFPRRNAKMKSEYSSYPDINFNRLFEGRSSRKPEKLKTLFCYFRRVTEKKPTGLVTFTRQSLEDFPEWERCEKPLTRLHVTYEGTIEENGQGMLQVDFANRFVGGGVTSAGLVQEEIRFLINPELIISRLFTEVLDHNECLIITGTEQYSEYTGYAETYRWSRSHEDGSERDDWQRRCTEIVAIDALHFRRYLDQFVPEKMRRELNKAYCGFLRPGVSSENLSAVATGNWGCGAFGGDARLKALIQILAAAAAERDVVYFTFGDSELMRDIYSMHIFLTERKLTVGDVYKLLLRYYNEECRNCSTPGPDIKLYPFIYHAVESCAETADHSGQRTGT
UniProt Q9Y5N6: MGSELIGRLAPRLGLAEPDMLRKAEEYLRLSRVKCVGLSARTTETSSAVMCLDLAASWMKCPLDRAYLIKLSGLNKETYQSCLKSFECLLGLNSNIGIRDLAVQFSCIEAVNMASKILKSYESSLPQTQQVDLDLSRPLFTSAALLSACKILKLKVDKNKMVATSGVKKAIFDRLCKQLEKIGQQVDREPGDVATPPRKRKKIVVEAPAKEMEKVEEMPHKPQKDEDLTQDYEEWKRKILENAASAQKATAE
UniProt Q9NWT1: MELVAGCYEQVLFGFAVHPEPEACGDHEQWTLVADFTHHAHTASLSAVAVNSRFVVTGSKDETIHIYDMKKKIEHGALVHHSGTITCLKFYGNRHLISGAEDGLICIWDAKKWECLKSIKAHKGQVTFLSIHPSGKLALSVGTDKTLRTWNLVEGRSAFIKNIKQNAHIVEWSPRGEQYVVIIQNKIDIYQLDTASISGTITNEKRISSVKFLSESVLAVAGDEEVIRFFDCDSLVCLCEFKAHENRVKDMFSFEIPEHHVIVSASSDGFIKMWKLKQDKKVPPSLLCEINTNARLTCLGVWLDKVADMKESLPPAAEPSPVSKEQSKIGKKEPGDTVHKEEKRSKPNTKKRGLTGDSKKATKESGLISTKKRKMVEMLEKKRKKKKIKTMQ
UniProt Q9UQ80: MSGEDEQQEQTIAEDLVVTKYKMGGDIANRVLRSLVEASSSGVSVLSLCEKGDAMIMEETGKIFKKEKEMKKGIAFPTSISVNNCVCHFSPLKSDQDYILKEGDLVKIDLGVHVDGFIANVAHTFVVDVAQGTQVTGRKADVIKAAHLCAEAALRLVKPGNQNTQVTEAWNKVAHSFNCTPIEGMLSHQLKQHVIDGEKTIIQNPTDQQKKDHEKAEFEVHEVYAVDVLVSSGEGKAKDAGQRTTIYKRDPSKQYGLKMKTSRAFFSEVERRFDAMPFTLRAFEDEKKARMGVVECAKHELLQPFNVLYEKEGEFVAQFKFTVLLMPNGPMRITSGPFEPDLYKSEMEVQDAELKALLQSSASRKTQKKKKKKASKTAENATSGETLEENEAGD
UniProt Q9UBD5: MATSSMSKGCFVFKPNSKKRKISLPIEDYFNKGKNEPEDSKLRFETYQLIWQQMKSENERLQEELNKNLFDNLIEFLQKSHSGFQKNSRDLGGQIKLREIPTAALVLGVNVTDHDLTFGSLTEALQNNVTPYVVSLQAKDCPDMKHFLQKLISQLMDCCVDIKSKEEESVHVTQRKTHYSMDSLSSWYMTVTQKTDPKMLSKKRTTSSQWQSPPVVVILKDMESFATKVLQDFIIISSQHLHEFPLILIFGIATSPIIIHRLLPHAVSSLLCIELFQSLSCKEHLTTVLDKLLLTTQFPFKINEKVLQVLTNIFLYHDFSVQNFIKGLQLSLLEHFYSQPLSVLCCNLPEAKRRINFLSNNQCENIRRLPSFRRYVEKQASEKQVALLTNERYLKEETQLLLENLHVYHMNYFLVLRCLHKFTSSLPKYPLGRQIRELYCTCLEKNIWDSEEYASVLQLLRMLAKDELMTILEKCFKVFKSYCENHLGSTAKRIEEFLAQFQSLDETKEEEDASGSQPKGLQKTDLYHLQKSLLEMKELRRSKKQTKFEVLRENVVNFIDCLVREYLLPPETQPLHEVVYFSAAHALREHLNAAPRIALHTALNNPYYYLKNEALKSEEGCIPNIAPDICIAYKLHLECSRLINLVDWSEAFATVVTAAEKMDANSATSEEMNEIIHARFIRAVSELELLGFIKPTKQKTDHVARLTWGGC
UniProt O60890: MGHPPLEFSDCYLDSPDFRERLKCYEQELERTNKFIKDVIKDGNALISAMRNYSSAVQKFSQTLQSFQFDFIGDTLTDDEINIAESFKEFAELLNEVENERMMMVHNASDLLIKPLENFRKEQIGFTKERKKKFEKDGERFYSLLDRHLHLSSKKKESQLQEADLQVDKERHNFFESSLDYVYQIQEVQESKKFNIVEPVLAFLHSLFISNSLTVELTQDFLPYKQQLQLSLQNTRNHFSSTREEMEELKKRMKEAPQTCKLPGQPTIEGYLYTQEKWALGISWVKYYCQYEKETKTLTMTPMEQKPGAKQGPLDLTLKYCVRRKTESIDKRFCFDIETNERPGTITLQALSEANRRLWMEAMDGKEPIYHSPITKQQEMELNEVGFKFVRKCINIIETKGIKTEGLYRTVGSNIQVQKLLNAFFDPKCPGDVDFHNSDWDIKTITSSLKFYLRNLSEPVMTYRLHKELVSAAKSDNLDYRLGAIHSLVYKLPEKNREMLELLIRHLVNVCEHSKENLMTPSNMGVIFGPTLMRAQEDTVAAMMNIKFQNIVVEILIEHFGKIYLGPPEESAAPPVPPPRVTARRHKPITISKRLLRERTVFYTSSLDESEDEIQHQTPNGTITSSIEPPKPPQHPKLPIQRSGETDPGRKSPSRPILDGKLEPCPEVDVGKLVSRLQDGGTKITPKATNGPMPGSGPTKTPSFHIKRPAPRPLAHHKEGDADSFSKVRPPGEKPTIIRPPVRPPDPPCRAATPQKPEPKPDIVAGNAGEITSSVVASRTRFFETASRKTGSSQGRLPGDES
UniProt Q32P28: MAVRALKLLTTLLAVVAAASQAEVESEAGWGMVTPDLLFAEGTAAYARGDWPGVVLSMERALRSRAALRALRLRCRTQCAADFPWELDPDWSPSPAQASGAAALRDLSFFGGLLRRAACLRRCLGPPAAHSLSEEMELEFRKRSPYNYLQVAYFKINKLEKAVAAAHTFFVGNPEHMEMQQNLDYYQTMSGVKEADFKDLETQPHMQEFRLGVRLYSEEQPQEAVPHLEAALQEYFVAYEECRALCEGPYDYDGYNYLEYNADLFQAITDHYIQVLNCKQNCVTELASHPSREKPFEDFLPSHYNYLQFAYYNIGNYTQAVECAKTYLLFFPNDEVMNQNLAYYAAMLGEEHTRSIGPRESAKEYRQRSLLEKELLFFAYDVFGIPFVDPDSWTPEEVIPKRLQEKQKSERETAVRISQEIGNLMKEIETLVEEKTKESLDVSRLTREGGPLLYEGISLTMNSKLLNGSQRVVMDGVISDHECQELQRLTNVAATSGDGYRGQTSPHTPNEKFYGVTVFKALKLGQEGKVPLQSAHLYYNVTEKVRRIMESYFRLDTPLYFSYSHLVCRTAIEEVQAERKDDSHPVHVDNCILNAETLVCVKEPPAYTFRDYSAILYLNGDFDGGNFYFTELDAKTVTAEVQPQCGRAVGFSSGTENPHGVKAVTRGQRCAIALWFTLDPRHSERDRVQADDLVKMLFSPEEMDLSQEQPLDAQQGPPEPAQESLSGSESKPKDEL
UniProt P43034: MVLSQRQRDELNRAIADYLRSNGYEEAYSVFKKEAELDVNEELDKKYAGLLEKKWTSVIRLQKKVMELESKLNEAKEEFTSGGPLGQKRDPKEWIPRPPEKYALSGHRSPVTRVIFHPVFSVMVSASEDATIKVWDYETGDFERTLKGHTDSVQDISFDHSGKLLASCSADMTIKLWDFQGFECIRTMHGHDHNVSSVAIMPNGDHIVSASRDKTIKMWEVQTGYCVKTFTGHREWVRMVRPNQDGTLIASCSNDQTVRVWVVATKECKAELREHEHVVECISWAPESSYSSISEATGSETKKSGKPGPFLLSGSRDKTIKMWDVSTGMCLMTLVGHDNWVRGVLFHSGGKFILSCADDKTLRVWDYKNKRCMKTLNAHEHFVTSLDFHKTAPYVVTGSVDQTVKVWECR
UniProt P07237: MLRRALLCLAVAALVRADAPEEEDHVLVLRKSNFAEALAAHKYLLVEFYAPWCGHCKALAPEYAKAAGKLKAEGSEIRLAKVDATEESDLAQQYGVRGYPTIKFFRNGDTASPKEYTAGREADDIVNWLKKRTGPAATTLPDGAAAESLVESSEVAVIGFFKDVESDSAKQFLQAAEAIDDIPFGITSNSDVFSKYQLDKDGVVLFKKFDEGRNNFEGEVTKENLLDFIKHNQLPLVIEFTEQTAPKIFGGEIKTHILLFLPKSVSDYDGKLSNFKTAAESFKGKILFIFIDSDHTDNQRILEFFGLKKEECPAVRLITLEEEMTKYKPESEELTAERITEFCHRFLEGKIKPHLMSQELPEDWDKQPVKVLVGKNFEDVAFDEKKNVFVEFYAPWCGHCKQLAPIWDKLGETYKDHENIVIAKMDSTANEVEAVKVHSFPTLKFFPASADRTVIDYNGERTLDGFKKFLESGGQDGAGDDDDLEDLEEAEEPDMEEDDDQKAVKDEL

Target: PACSIN1_Q9BY11_424_LGEEDEQGWCR (UniProt Q9BY11)
- probe-labelled cysteine peptide fold change (10 µM): 0.174
- probe-labelled cysteine peptide fold change (50 µM): 0.0379

Target: PAFAH2_Q99487_298_ICAQHEQSR (UniProt Q99487)
- probe-labelled cysteine peptide fold change (10 µM): 0.124
- probe-labelled cysteine peptide fold change (50 µM): 0.261

Target: OSBPL8_Q9BZF1_255_CWMDALELALK (UniProt Q9BZF1)
- probe-labelled cysteine peptide fold change (10 µM): -0.00277
- probe-labelled cysteine peptide fold change (50 µM): -0.137

Target: PARG_Q86W56_608_IALCLPNICTQPIPLLK (UniProt Q86W56)
- probe-labelled cysteine peptide fold change (10 µM): 0.177
- probe-labelled cysteine peptide fold change (50 µM): -0.0522

Target: ORC6_Q9Y5N6_88_SFECLLGLNSNIGIR (UniProt Q9Y5N6)
- probe-labelled cysteine peptide fold change (10 µM): -0.00209
- probe-labelled cysteine peptide fold change (50 µM): -0.675

Target: PAK1IP1_Q9NWT1_106_HLISGAEDGLICIWDAK (UniProt Q9NWT1)
- probe-labelled cysteine peptide fold change (10 µM): -0.0234
- probe-labelled cysteine peptide fold change (50 µM): 0.336

Target: PA2G4_Q9UQ80_296_MGVVECAKHELLQPFNVLYEK (UniProt Q9UQ80)
- probe-labelled cysteine peptide fold change (10 µM): -0.532
- probe-labelled cysteine peptide fold change (50 µM): -0.895

Target: PAFAH1B3_Q15102_55_DKEPEVVFIGDSLVQLMHQCEIWR (UniProt Q15102)
- probe-labelled cysteine peptide fold change (10 µM): 0.27
- probe-labelled cysteine peptide fold change (50 µM): 0.185

Target: ORC3_Q9UBD5_561_ENVVNFIDCLVR (UniProt Q9UBD5)
- probe-labelled cysteine peptide fold change (10 µM): 0.171
- probe-labelled cysteine peptide fold change (50 µM): 0.419

Target: OPHN1_O60890_11_GHPPLEFSDCYLDSPDFR (UniProt O60890)
- probe-labelled cysteine peptide fold change (10 µM): 0.105
- probe-labelled cysteine peptide fold change (50 µM): 0.129

Target: P3H1_Q32P28_282_QNCVTELASHPSR (UniProt Q32P28)
- probe-labelled cysteine peptide fold change (10 µM): 0.116
- probe-labelled cysteine peptide fold change (50 µM): 0.054

Target: PAFAH1B1_P43034_184_LWDFQGFECIR (UniProt P43034)
- probe-labelled cysteine peptide fold change (10 µM): 0.175
- probe-labelled cysteine peptide fold change (50 µM): -0.0423

Target: P4HB_P07237_312_EECPAVR (UniProt P07237)
- probe-labelled cysteine peptide fold change (10 µM): -0.0964
- probe-labelled cysteine peptide fold change (50 µM): 0.161

Target: PAFAH1B1_P43034_226_MWEVQTGYCVK (UniProt P43034)
- probe-labelled cysteine peptide fold change (10 µM): 0.333
- probe-labelled cysteine peptide fold change (50 µM): 0.413

From the supplement of paper PMC12067093, “Discovery and optimisation of a covalent ligand for TRIM25 and its application to targeted protein ubiquitination” (Chemical Science, 2025)
